In US8735417B2, “Aminopyrimidines as Syk inhibitors” (Merck Sharp & Dohme Corp., priority 2009, dated 2014):
pIC50: −log10 of the molar value. The match of structure and compound is tentative.

Molecular target: recombinant human GST-SYK (Homo sapiens, UniProt P43405)
Assay: Homogeneous Time-Resolved Fluorescence (HTRF) assay for the recombinant human SYK enzyme
Conditions: read-out: rhSYK Activity (IC50); recombinant human GST-SYK 5 pM, ATP 25 μM, 10-dose titration
Description: Homogeneous Time-Resolved Fluorescence (HTRF) Assay for the Recombinant Human SYK Enzyme:
A recombinant GST-hSYK fusion protein was used to measure potency of compounds to inhibit human SYK activity. The recombinant human GST-SYK (Carna Biosciences #08-176) (5 pM final concentration) was incubated with various concentrations of the inhibitor diluted in DMSO (0.1% final concentration) for 10 minutes at room temperature in 15 mM Tris-HCl (pH 7.5), 0.01% tween 20, 2 mM DTT in 384 well plate format. To initiate the reaction the biotinylated substrate peptide (250 nM final concentration) that contains the phosphorylation site for SYK was added with magnesium (5 mM final concentration) and ATP (25 μM final concentration). Final volume of the reaction was 10 μL. Phosphorylation of the peptide was allowed to proceed for 45′ at room temperature. To quench the reaction and detect the phosphorylated product, 2 nM of a Europium-atiti-phosphotyrosine antibody (Perkin Elmer #AD0161) and 70 nM SA-APC (Perkin-Elmer #CR130-100) were added together in 15 mM Tris pH 7.5, 40 mM EDTA, 0.01% tween 20. Final volume of the quenching solution was 10 μL. The resulting HTRF signal was measured after 30 minutes on a EnVision (Perkin-Elmer) reader using a time-resolved fluorescence protocol. […]

O=C(O)CNc1ncc(-c2cccc(Nc3nccc(C(F)(F)F)n3)c2)s1
pIC50: > 7.00
